Experimental data: patent US20100203041A1
Results are given in words; binding and its absence hold for the method and conditions named. Binding can be weak; no strength is given.

Molecular target: full-length EGFL7 (epitope mapping experiments)
Test: western blot of lysates of 293 cells transfected with full-length or truncated EGFL7

binding: binds
B1: anti-EGFL7 mumab 4F11.1.8 (antibody, IgG2b, V domains shown)
VH: QIQLVQSGPELKKPGETVKISCKASGHTFTTYGMSWVKQAPGKGLKWMGWINTHSGVPTYADDFKGRFAFSLETSASTAHLQINNLKNEDTATYFCARLGSSAVDYWGQGTTVTVSS
VL: DIVLTQSPASLAVSLGQRATISCKASQSVDYDGDSYMSWYQQKPGQPPKLLIYGASNLESGIPARFSGSGSGTDFTLNIHPVEEEDAATYYCQQNNEDPYTFGGGTKVEIKR
